## Percent effect of library compounds

Sequences of proteins named here, by UniProt entry; tags and fusion partners are left off. Residues count along the entry.
UniProt Q8IDJ8, 1-583: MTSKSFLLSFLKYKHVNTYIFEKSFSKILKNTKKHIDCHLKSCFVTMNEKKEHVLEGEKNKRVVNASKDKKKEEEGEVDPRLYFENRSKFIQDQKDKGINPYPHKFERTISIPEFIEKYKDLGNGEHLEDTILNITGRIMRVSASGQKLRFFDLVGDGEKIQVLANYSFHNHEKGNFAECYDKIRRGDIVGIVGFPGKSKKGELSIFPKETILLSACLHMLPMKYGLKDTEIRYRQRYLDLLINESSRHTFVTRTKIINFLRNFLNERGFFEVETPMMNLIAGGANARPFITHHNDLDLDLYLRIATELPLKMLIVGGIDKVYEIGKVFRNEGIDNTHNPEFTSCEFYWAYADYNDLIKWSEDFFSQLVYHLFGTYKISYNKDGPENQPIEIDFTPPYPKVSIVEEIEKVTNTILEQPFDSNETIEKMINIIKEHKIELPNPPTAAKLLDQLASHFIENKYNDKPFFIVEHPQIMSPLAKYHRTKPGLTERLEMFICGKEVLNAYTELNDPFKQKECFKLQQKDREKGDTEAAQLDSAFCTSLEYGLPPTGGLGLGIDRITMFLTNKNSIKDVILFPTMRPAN
UniProt Q4DA54, 1-478: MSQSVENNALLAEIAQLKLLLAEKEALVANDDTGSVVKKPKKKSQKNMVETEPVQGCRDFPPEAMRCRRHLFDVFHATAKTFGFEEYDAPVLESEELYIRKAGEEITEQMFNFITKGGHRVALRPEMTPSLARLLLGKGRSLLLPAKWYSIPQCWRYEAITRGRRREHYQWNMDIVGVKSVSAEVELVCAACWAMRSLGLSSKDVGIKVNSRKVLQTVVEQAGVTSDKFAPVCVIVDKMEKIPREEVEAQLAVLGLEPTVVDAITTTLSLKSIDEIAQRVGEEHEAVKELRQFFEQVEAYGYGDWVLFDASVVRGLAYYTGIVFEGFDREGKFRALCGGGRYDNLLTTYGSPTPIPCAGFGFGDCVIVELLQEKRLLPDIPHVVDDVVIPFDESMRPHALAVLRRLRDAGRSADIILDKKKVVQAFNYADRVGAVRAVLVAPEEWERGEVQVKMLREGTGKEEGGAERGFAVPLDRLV
UniProt I6X8D2, whole entry: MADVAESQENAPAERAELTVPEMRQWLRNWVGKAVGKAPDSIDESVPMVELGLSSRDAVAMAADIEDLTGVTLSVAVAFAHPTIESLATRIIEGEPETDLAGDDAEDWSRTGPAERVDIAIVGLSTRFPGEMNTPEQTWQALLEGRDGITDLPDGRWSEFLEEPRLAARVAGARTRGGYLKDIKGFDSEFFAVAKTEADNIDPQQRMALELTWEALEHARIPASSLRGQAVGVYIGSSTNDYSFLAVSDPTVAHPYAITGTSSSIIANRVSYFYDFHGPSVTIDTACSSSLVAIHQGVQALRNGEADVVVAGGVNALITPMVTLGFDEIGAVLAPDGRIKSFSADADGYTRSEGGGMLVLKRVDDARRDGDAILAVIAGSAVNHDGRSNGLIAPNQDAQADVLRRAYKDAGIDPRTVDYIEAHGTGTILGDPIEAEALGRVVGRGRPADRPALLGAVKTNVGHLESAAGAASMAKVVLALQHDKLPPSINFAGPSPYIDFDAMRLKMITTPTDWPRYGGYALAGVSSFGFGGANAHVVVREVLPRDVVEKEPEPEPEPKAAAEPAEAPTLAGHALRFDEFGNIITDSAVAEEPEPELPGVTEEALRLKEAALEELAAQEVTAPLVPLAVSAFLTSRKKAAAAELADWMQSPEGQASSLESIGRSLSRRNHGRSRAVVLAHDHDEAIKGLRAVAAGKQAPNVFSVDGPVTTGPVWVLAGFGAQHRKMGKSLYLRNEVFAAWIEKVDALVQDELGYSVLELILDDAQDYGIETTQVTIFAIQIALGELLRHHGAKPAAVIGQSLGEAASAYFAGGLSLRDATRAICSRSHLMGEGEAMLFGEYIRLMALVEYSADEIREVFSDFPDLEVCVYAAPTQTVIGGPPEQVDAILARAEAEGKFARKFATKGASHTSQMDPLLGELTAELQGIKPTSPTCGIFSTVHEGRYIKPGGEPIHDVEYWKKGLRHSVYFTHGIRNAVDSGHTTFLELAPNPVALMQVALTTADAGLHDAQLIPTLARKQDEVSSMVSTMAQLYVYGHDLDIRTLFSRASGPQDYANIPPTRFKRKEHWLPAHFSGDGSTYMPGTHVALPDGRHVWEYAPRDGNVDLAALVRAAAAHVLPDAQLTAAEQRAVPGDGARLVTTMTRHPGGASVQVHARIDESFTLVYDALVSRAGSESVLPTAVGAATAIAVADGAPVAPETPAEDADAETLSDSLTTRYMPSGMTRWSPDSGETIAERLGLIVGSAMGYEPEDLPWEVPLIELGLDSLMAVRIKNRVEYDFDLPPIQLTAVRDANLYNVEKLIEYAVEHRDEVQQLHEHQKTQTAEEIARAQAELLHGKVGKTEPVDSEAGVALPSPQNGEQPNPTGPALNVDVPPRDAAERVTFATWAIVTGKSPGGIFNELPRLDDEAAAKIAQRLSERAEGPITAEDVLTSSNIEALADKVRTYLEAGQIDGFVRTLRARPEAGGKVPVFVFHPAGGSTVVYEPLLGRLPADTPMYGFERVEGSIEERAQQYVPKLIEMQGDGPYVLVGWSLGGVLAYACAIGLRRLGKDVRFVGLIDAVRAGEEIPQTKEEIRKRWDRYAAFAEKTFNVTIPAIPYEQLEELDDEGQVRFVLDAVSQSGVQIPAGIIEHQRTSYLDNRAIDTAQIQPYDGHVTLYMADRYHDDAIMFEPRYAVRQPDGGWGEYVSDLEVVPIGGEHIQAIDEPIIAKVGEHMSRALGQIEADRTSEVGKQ

A: 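Lysine-tRNA ligase, Plasmodium falciparum 3D7 (UniProt Q8IDJ8). Enzyme assay of the cytosolic lysyl-tRNA synthetase in 384-well plates, read by luminescence. Tested at 30 µM. Higher reads as stronger inhibition, judged from the few compounds that gave an IC50. Of about 69,000 compounds tested this way, about 49 (0.071%) reached 50% or more in at least one test.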
B: 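Histidine-tRNA ligase, Trypanosoma cruzi CL Brener (UniProt Q4DA54). Enzyme assay of histidyl-tRNA synthetase; the read-out is not stated. Tested at 30 µM. Direction is inferred from retests: higher values go with stronger inhibition. Size under these conditions: about 69,000 compounds, about 31 of them at 50% or above in at least one test.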
C: 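Cell assay of Leishmania donovani living inside macrophages; the read-out is not stated. Tested at 30 µM. Higher reads as stronger inhibition (inferred: compounds with an IC50 in retests scored well above the rest). About 69,000 compounds were tested under these conditions; 1.5% (about 1,000) showed 50% or more at least once.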
D: 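Polyketide synthase Pks13, Mycobacterium tuberculosis (UniProt I6X8D2). Enzyme assay of the thioesterase domain of polyketide synthase 13; the read-out is not stated. Tested at 30 µM. The record gives no direction; the compounds picked for IC50 retests had high values, so higher reads as stronger inhibition. Size under these conditions: about 67,000 compounds, about 300 of them at 50% or above in at least one test.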

Each number is a percent effect as filed.
The record does not define 0% and 100%; most values in the screen are far below 50% and negative numbers occur (in some assays of this library far below -100).
This is an unselected part of the compounds tested.
Two or more numbers in one place are separate tests of the same structure; such repeats can differ widely.

- CNC(=O)[C@@H]1CC[C@@H]2[C@@H](CCN2Cc2cn(C)c3ccccc23)O1 : A: 4.814%; B: -8.046%; D: -30.82%
- CCc1nc(CN2CCCC(NCc3ncc(C(C)(C)C)o3)C2)no1 (centres undefined) : A: 3.239%; B: 4.906%; C: 34.56%; D: -32.85%
- CC(C)N(Cc1cccnc1)C(=O)CCSc1ccc(C#N)cc1 : A: 3.566%; B: -1.587%; C: -95.08%; D: -21.84%
- COCCC(=O)N1CCC2(CC1)CN(S(C)(=O)=O)Cc1ccccc1O2 : A: 0.4126%; B: 5.303%; C: 19.78%; D: 2.393%
- Cc1ccccc1OCCSc1nnc(CC2CCS(=O)(=O)C2)n1C (centres undefined) : A: 5.818%; B: 3.488%; C: 22.12%; D: -22.69%
- O=C(O)C(F)(F)F.O=C(O)C(F)(F)F.O=C(O)C(F)(F)F.[H][C@@]12COC[C@]1(COCc1ccncc1)CN(Cc1ccccn1)C2 : C: 11.8%
- Cc1ccc(C)c(CSc2nnc([C@@H](N)C(C)C)o2)c1 : A: 2.581%; B: 11.88%; D: 4.457%
- CC(C)(C)C(N)c1nc(-c2nnc[nH]2)no1 (centres undefined) : A: -2.352%; B: -3.797%; C: 7.282%; D: -47.53%
- CSCCC1c2nc[nH]c2CCN1Cc1ccccc1C#N (centres undefined) : A: 8.084%; B: 4.598%; C: 17.73%; D: -5.106%
- CN(C)C(=O)Cc1ccccc1NCc1cc(C#N)ccc1F : A: 2.412%; B: 3.415%; C: -21.81%; D: -18.54%
- CN(C)CCN1CCCC12CCCN(C(=O)c1cccnc1)C2.O=C(O)C(F)(F)F.O=C(O)C(F)(F)F (centres undefined) : C: 5.753%
- CN(C)C(=O)NCC(=O)N1CCCC2(CCC(=O)N(CC3CC3)C2)C1 (centres undefined) : A: 6.433%; B: 4.103%; C: -3.459%; D: -7.071%
- O=C(O)C(F)(F)F.[H][C@@]12CCN(CCc3ccccc3)C[C@@]1([H])O[C@@H](C(=O)NCC1CC1)C2 : C: -22.31%
- [H][C@@]12CN(Cc3ccccn3)C[C@]1([H])OCCN2CC1CCCO1 (some centres undefined) : C: 15.57%
- Cc1nc(C)c(-c2nnc(SCC(=O)O)n2C(C)c2ccccc2)o1 (centres undefined) : A: 4.643%; B: 0%; C: -34.73%; D: -2.881%
- Cc1noc(C2(C)CCCN(C(=O)c3cccnc3)C2)n1 (centres undefined) : A: -4.14%; B: 4.478%; C: 13.3% & 5.466%; D: 6.02%
- COc1cc(N2CC[C@@H]3O[C@@H](C(=O)NCCN(C)C)C[C@@H]32)ncn1 : A: 1.911%; B: 2.857%; D: -9.609%
- CC(COc1ccccc1)NCc1nncn1C1CCCCC1 (centres undefined) : A: 0.971%; B: 4.233%; C: -6.519%
- CN(Cc1ccsc1)Cc1nc(-c2ccncc2)no1 : A: 3.373%; B: 8.861%; C: -11.28%; D: -11.51%
- CN(C)C(=O)CN1C[C@H]2CCN(C(=O)c3ccccc3)CC[C@H]2S1(=O)=O : A: 1.815%; B: 4.301%; D: -32.68%
- CCc1c(C)n(CCOC)c2nc3ccccc3n2c1=O : A: -2.587%; B: 3.093%; C: -1.39%; D: -24.04%
- Cn1nc(CN2CCCCC2)c2c1CN(C(=O)c1cccc(C#N)c1)C2.O=C(O)C(F)(F)F : C: 21.91%
- O=C(O)C(F)(F)F.[H][C@@]12CN(Cc3ccsc3)C[C@]1([H])OCCN2c1ccnc(N(C)C)n1 : C: 28.84%
- O=C(O)C(F)(F)F.[H][C@@]12COC[C@]1([H])[C@@H](OCCN(C)C)CN2C(=O)c1cccs1 : C: 15%
- O=C(Nc1ccccc1Cl)N1CCN(CC2CC2)[C@@H]2CS(=O)(=O)C[C@@H]21 : A: 1.022%; B: 1.288%; D: 4.239%
- Cc1nccc(-c2cccc(NCC(=O)N3CCCC(C)C3)c2)n1 (centres undefined) : A: 1.627%; B: 9.249%; C: -2.379%; D: 0.734%
- O=C(COCc1ccccc1)N1CCCC(n2cncn2)C1 (centres undefined) : A: 2.601%; B: -0.7519%; C: 29.09%; D: 2.577%

Source: ChEMBL document CHEMBL3988442, “University of Dundee, Small-Polar-MMV Screening Library” (2021).